In doi:10.1101/2020.06.16.155333:
Like-named read-outs stand apart in the source and are kept apart here. These are yes or no findings as the source states them, for the method shown. Binding seen in cells or lysates may run through a third protein. A yes stands for co-enrichment or nearness to the bait. Other partners may have been found.

Sequences of proteins named here, by UniProt entry; tags and fusion partners are left off.
UniProt Q9VK45: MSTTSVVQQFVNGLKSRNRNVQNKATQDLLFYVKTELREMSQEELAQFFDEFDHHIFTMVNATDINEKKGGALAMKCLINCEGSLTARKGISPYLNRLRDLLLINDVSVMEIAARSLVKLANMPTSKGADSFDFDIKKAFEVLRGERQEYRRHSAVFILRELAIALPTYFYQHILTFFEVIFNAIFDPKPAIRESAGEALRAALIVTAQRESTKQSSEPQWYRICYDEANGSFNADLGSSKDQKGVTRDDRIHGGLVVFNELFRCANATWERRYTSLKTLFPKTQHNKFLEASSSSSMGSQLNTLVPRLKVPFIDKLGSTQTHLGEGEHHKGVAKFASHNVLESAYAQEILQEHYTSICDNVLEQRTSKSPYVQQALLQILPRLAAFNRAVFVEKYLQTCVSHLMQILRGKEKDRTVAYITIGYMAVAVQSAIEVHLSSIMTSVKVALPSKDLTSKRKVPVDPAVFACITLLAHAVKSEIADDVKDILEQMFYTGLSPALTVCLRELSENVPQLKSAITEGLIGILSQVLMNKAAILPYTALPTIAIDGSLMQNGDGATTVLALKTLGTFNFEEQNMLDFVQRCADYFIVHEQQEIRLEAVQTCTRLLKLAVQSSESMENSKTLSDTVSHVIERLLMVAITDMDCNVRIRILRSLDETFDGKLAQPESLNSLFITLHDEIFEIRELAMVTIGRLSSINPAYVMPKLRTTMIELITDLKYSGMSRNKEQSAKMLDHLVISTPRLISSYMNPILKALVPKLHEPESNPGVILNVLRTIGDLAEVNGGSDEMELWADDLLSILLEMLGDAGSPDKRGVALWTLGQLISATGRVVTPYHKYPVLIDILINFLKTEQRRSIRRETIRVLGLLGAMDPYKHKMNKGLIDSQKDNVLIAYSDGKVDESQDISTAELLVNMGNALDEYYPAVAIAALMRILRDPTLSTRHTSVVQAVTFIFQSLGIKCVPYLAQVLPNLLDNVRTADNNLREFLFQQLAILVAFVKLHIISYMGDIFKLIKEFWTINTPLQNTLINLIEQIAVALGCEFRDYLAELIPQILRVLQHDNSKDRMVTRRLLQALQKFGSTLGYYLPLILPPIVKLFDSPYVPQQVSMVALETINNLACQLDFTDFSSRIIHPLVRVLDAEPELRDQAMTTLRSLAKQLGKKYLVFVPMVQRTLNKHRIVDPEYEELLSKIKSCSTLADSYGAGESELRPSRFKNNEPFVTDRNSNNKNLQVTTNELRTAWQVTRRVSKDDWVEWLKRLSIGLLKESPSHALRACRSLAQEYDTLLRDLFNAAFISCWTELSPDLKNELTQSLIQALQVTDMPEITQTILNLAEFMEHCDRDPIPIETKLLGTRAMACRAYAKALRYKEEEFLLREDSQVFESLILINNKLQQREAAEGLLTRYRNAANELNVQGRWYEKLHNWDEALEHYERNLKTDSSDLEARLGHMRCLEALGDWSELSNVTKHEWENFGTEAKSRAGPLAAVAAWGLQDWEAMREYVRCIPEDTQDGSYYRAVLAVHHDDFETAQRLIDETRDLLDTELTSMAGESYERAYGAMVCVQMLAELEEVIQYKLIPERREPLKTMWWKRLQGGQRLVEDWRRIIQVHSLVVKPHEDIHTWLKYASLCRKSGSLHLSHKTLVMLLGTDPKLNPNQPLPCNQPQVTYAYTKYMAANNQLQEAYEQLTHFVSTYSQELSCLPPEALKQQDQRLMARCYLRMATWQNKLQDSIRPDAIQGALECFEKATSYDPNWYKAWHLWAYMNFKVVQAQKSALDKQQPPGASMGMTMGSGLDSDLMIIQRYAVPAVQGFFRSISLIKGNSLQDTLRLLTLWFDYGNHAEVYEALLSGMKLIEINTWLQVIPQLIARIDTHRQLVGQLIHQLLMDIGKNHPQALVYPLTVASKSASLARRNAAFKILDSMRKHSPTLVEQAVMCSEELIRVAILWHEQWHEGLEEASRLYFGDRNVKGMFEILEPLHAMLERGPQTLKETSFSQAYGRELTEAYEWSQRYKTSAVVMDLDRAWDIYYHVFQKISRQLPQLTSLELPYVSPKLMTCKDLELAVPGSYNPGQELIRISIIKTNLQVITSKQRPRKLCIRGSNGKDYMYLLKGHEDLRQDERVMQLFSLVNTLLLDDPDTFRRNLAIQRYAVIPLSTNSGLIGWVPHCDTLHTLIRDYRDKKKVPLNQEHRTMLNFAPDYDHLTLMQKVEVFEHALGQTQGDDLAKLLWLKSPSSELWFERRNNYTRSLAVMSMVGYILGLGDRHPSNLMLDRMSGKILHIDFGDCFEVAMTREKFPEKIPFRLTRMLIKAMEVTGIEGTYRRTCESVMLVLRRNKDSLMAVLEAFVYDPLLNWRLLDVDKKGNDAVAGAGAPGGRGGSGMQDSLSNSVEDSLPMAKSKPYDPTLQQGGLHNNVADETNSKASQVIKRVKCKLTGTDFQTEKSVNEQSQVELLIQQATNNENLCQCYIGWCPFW

Legend:
GST-Bsd (Drosophila) [1] = biological target: GST-Bsd (Drosophila) (UniProt Q7KMI3); experiment: affinity purification with mass spectrometry
GST-Bsd (Drosophila) [2] = biological target: GST-Bsd (Drosophila) (UniProt Q7KMI3); experiment: affinity purification with mass spectrometry; remark: listed apart in the source

Target of Rapamycin (from UniProt Q9VK45 1-2470)
binding (GST-Bsd (Drosophila) [1]): binds

B1: Yp3 (endogenous, embryo lysate) (protein, UniProt P06607 20-420)
chain: SKDASNDRLKPTKWLTATELENVPSLNDITWERLENQPLEQGAKVIEKIYHVGQIKHDLTPSFVPSPSNVPVWIIKSNGQKVECKLNNYVETAKAQPGFGEDEVTIVLTGLPKTSPAQQKAMRRLIQAYVQKYNLQQLQKNAQEQQQQLKSSDYDYTSSEEAADQWKSAKAASGDLIIIDLGSTLTNFKRYAMLDVLNTGAMIGQTLIDLTNKGVPQEIIHLIGQGISAHVAGAAGNKYTAQTGHKLRRITGLDPAKVLSKRPQILGGLSRGDADFVDAIHTSTFAMGTPIRCGDVDFYPNGPSTGVPGSENVIEAVARATRYFAESVRPGSERNFPAVPANSLKQYKEQDGFGKRAYMGLQIDYDLRGDYILEVNAKSPFGQRSPAHKQAAYHGMHHAQN
binding (GST-Bsd (Drosophila) [2]): binds

B2: Jaguar (Jar) (endogenous, embryo lysate) (protein, UniProt Q01989 1-1253)
chain: MLEDTQLVWVRDAAEGYIQGRITEIGAKEFEVTPTDRKYPKRTCHFDDIHSSCDGPQDHDDNCELMLLNEATFLDNLKTRYYKDKIYTYVANILIAVNPYREIKELYAPDTIKKYNGRSLGELPPHVFAIADKAIRDMRVYKLSQSIIVSGESGAGKTESTKYLLKYLCYSHDSAGPIETKILDANPVLEAFGNAKTTRNNNSSRFGKFIEVHYDAKCQVVGGYISHYLLEKSRICTQSAEERNYHVFYMLLAGAPQQLRDKLSLGKPDDYRYLSGCTQYFANAKTEQLIPGSQKSKNHQQKGPLKDPIIDDYQHFHNLDKALGRLGLSDTEKLGIYSLVAAVLHLGNIAFEEIPDDVRGGCQVSEASEQSLTITSGLLGVDQTELRTALVSRVMQSKGGGFKGTVIMVPLKIYEASNARDALAKAIYSRLFDRIVGLINQSIPFQASNFYIGVLDIAGFEYFTVNSFEQFCINYCNEKLQKFFNDNILKNEQELYKREGLNVPEITFTDNQDIIELIEAKSNGIFTLLDEESKLPKPSYSHFTAEVHKSWANHYRLGLPRSSRLKAHRTLRDEEGFLVRHFAGAVCYNTEQFIEKNNDALHASLEGLVQECDNPLLQTLFPSGSSTSVRGKLNFISVGSKFKTQLGELMEKLEQNGTNFIRCIKPNSKMIDRQFEGSLALAQLKCSGTISVLELMEHGYPSRVLFADLYSMYKSVLPPELVSLPARTFCEAMFQSLNLSAKDFKFGITKVFFRPGKFVEFDRIMRSDPENMLAIVAKVKKWLIRSRWVKSALGALCVIKLRNRIIYRNKCVLIAQRIARGFLARKQHRPRYQGIGKINKIRTNTLKTIEIASGLKMGREEIISGVNDIYRQIDDAIKKIKMNPRITQREMDSMYTVVMANMNKLTVDLNTKLKEQQQAEEQERLRKIQEALEAERAAKEAEEQRQREEIENKRLKAEMETRRKAAEAQRLRQEEEDRRAALALQEQLEKEAKDDAKYRQQLEQERRDHELALRLANESNGQVEDSPPVIRNGVNDASPMGPNKLIRSENVRAQQQALGKQKYDLSKWKYSELRDAINTSCDIELLEACRQEFHRRLKVYHAWKAKNRKRTTMDENERAPRSVMEAAFKQPPLVQPIQEIVTAQHRYFRIPFMRANAPDNTKRGLWYAHFDGQWIARQMELHADKPPILLVAGTDDMQMCELSLEETGLTRKRGAEILEHEFNREWERNGGKAYKNLGAAKPNGPAAAMQKQQ
binding (GST-Bsd (Drosophila) [2]): binds
